Test results from publication PMC7835349 (Communications Biology, 2021).
“And” between values parts separate entries of the source, which are not always exact repeats. Equal values may be shown once. This continues a long series; more values of the same kind are listed elsewhere.

Test system: telemetered dogs
Assay: Conscious dog telemetry (QRS amplitude and other cardiovascular parameters, tolerability)
[1] = 1.7 mg/kg 0.5h infusion, dog 247, 1.5 hours
[2] = 1.7 mg/kg 0.5h infusion, dog 247, 2 hours
[3] = 1.7 mg/kg 0.5h infusion, dog 247, 3 hours
[4] = 1.7 mg/kg 0.5h infusion, dog 247, 4 hours
[5] = 1.7 mg/kg 0.5h infusion, dog 247, -0.5 hours
[6] = 1.7 mg/kg 0.5h infusion, dog 247, -0.75 hours
[7] = 1.7 mg/kg 0.5h infusion, dog 247, -1 hours
[8] = 1.7 mg/kg 0.5h infusion, dog 247, -[…]
[9] = 1.7 mg/kg 0.5h infusion, dog 247, […]
[10] = 1.7 mg/kg 0.5h infusion, dog 288, 0 hours
[11] = 1.7 mg/kg 0.5h infusion, dog 288, 0.5 hours
[12] = 1.7 mg/kg 0.5h infusion, dog 288, 1 hours
[13] = 1.7 mg/kg 0.5h infusion, dog 288, 1.5 hours
[14] = 1.7 mg/kg 0.5h infusion, dog 288, 2 hours
[15] = 1.7 mg/kg 0.5h infusion, dog 288, 3 hours
[16] = 1.7 mg/kg 0.5h infusion, dog 288, 4 hours
[17] = 1.7 mg/kg 0.5h infusion, dog 288, -0.5 hours
[18] = 1.7 mg/kg 0.5h infusion, dog 288, -0.75 hours
[19] = 1.7 mg/kg 0.5h infusion, dog 288, -1 hours
[20] = 1.7 mg/kg 0.5h infusion, dog 288, -[…]
[21] = 1.7 mg/kg 0.5h infusion, dog 288, […]
[22] = dog, 0.85 mg/kg 0.5h infusion, 0.5 h, 0.85 mg/kg
[23] = dog, 0.85 mg/kg 0.5h infusion, 0.75 h, 0.85 mg/kg

In the case of `CN(CCO)CCC(CSc1ccccc1)Nc1ccc(S(=O)(=O)NC(=O)c2ccc(N3CCC(C(O)c4ccccc4-c4ccc(Cl)cc4)CC3)cc2)cc1S(=O)(=O)C(F)(F)F` (stereo not drawn) [AZD4320], the “QRS amplitude (% baseline)” value [1] is reported as 92 % baseline, the “Systolic blood pressure (mmHg)” value [1] is reported as 150 mmHg and the “ECG PR interval” value [2] is reported as 89 ms. The “ECG QRS duration” value [2] was 43 ms, the “Left ventricular -dP/dt (mmHg/s)” value [2] was -2331 mmHg/s and the “QRS amplitude (% baseline)” value [2] was 59 % baseline. For the same molecule, the “Systolic blood pressure (mmHg)” value [2] was 150 mmHg, the “ECG PR interval” value [3] was 92 ms and the “ECG QRS duration” value [3] was 43 ms. For the same molecule, the “Left ventricular -dP/dt (mmHg/s)” value [3] was -1374 mmHg/s, the “QRS amplitude (% baseline)” value [3] was 4.62 % baseline and the “Systolic blood pressure (mmHg)” value [3] was 100 mmHg. The “ECG PR interval” value [4] was 79 ms, the “ECG QRS duration” value [4] was 43 ms and the “Left ventricular -dP/dt (mmHg/s)” value [4] was -1040 mmHg/s. The “QRS amplitude (% baseline)” value [4] was 5 % baseline, the “Systolic blood pressure (mmHg)” value [4] was 70 mmHg and the “ECG PR interval” value [5] was 97 ms. The “ECG QRS duration” value [5] was 43 ms, the “Left ventricular -dP/dt (mmHg/s)” value [5] was -2267 mmHg/s and the “QRS amplitude (% baseline)” value [5] was 101 % baseline. For the same molecule, the “Systolic blood pressure (mmHg)” value [5] was 138 mmHg, the “ECG PR interval” value [6] was 96 ms and the “ECG QRS duration” value [6] was 43 ms. For the same molecule, the “Left ventricular -dP/dt (mmHg/s)” value [6] was -2278 mmHg/s, the “QRS amplitude (% baseline)” value [6] was 101 % baseline and the “Systolic blood pressure (mmHg)” value [6] was 133 mmHg. For the same molecule, the “ECG PR interval” value [7] was 94 ms, the “ECG QRS duration” value [7] was 43 ms and the “Left ventricular -dP/dt (mmHg/s)” value [7] was -2288 mmHg/s. For the same molecule, the “QRS amplitude (% baseline)” value [7] was 100 % baseline, the “Systolic blood pressure (mmHg)” value [7] was 132 mmHg and the “ECG PR interval” value [8] was 90 ms. For the same molecule, the “ECG QRS duration” value [8] was 43 ms, the “Left ventricular -dP/dt (mmHg/s)” value [8] was -2309 mmHg/s and the “QRS amplitude (% baseline)” value [8] was 99 % baseline. For the same molecule, the “Systolic blood pressure (mmHg)” value [8] was 145 mmHg, the “ECG PR interval” value [9] was 82 ms and the “ECG QRS duration” value [9] was 42 ms. For the same molecule, the “Left ventricular -dP/dt (mmHg/s)” value [9] was -1583 mmHg/s, the “QRS amplitude (% baseline)” value [9] was 8 % baseline and the “Systolic blood pressure (mmHg)” value [9] was 122 mmHg. For the same molecule, the “ECG PR interval” value [10] was 87 ms, the “ECG QRS duration” value [10] was 41 ms and the “Left ventricular -dP/dt (mmHg/s)” value [10] was -2656 mmHg/s. The “QRS amplitude (% baseline)” value [10] was 100 % baseline, the “Systolic blood pressure (mmHg)” value [10] was 140 mmHg and the “ECG PR interval” value [11] was 88 ms. For the same molecule, the “ECG QRS duration” value [11] was 42 ms, the “Left ventricular -dP/dt (mmHg/s)” value [11] was -2903 mmHg/s and the “QRS amplitude (% baseline)” value [11] was 80 % baseline. The “Systolic blood pressure (mmHg)” value [11] was 141 mmHg, the “ECG PR interval” value [12] was 89 ms and the “ECG QRS duration” value [12] was 43 ms. For the same molecule, the “Left ventricular -dP/dt (mmHg/s)” value [12] was -2836 mmHg/s, the “QRS amplitude (% baseline)” value [12] was 97 % baseline and the “Systolic blood pressure (mmHg)” value [12] was 146 mmHg. The “ECG PR interval” value [13] was 81 ms, the “ECG QRS duration” value [13] was 41 ms and the “Left ventricular -dP/dt (mmHg/s)” value [13] was -2701 mmHg/s. The “QRS amplitude (% baseline)” value [13] was 94 % baseline, the “Systolic blood pressure (mmHg)” value [13] was 145 mmHg and the “ECG PR interval” value [14] was 76 ms. The “ECG QRS duration” value [14] was 39 ms, the “Left ventricular -dP/dt (mmHg/s)” value [14] was -2328 mmHg/s and the “QRS amplitude (% baseline)” value [14] was 32 % baseline. The “Systolic blood pressure (mmHg)” value [14] was 128 mmHg, the “ECG PR interval” value [15] was 95 ms and the “ECG QRS duration” value [15] was 33 ms. The “Left ventricular -dP/dt (mmHg/s)” value [15] was -1423 mmHg/s, the “QRS amplitude (% baseline)” value [15] was 9 % baseline and the “Systolic blood pressure (mmHg)” value [15] was 71 mmHg. The “ECG PR interval” value [16] was 83 ms, the “ECG QRS duration” value [16] was 35 ms and the “Left ventricular -dP/dt (mmHg/s)” value [16] was -1372 mmHg/s. The “QRS amplitude (% baseline)” value [16] was 4.4 % baseline, the “Systolic blood pressure (mmHg)” value [16] was 63 mmHg and the “ECG PR interval” value [17] was 83 ms. The “ECG QRS duration” value [17] was 42 ms, the “Left ventricular -dP/dt (mmHg/s)” value [17] was -2638 mmHg/s and the “QRS amplitude (% baseline)” value [17] was 99 % baseline. For the same molecule, the “Systolic blood pressure (mmHg)” value [17] was 149 mmHg, the “ECG PR interval” value [18] was 88 ms and the “ECG QRS duration” value [18] was 42 ms. The “Left ventricular -dP/dt (mmHg/s)” value [18] was -2682 mmHg/s, the “QRS amplitude (% baseline)” value [18] was 100 % baseline and the “Systolic blood pressure (mmHg)” value [18] was 138 mmHg. The “ECG PR interval” value [19] was 89 ms, the “ECG QRS duration” value [19] was 41 ms and the “Left ventricular -dP/dt (mmHg/s)” value [19] was -2727 mmHg/s. The “QRS amplitude (% baseline)” value [19] was 99 % baseline, the “Systolic blood pressure (mmHg)” value [19] was 138 mmHg and the “ECG PR interval” value [20] was 87 ms. For the same molecule, the “ECG QRS duration” value [20] was 41 ms, the “Left ventricular -dP/dt (mmHg/s)” value [20] was -2575 mmHg/s and the “QRS amplitude (% baseline)” value [20] was 102 % baseline. The “Systolic blood pressure (mmHg)” value [20] was 135 mmHg, the “ECG PR interval” value [21] was 80 ms and the “ECG QRS duration” value [21] was 38 ms. The “Left ventricular -dP/dt (mmHg/s)” value [21] was -1456 mmHg/s, the “QRS amplitude (% baseline)” value [21] was 16 % baseline and the “Systolic blood pressure (mmHg)” value [21] was 77 mmHg. For the same molecule, the “ECG PR interval” value [22] was 80 ms and 88 ms, the “Left ventricular -dP/dt (mmHg/s)” value [22] was 5112 mmHg/s and the “QRS amplitude (% baseline)” value [22] was 104 % baseline. The “Systolic blood pressure (mmHg)” value [22] was 169 mmHg and 176 mmHg, the “ECG PR interval” value [23] was 80 ms and 82 ms and the “ECG QRS duration” value [23] was 36 ms.
